Data as given in PubChem BioAssay AID1508588 (Peter MacCallum Cancer Centre, 2020).

- Purpose: 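Genome-wide search for knock-downs that heighten vemurafenib action in melanoma cells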 (primary screen)
- Cell system: human WM266.4 melanoma cells (BRAF V600 mutant)
- Reagent: siRNA pool against human genes, 40 nM
- Time to read-out: 96 h from transfection to read-out
- Conditions: vemurafenib 300 nM (about IC25), added 48 h after transfection, for 48 h; comparison arm got DMSO vehicle only
- Measured: 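Cell gain (DAPI nuclei at end minus before drug, mean of two replicates) and medium lactate by absorbance per cell, both as ratio to non-targeting siRNA, also grouped into fold-change classes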
- Scale: cell gain with vemurafenib: higher = more cell gain than with non-targeting siRNA; lactate per cell with vemurafenib: higher = more lactate made per cell
- Call rule: 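a knock-down counts as enhancing when its fold-change classes with vehicle and with vemurafenib, taken together, show a stronger drug effect on cell gain or lactate per cell; exact class pairs not stated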
- Meaning of the calls: active = enhances vemurafenib effect; inactive = no enhancement seen
In all, the deposit lists about 18,000 reagents; below is a part drawn at random. Over the whole deposit, 790 (4.4%) were called active. 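Calls rest on a combination of fold-change classes in drug and vehicle arms, not all shown here.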 A number with no mark means an inactive call.

For PROC, the values are cell gain with vemurafenib 0.13; lactate per cell with vemurafenib 0.85.
Knock-down of ENPEP resulted in: cell gain with vemurafenib 0.62; lactate per cell with vemurafenib 1.54.
Knock-down of GTF2H1 came out at: cell gain with vemurafenib 0.69; lactate per cell with vemurafenib 0.99.
TRIM40 scored cell gain with vemurafenib 1.01; lactate per cell with vemurafenib 0.78.
FGFR2 gave cell gain with vemurafenib 0.29; lactate per cell with vemurafenib 0.87.
Silencing of PCDHGA5 gave: cell gain with vemurafenib 0.59; lactate per cell with vemurafenib 1.1.
For P2RX2 the deposit lists cell gain with vemurafenib 0.27; lactate per cell with vemurafenib 0.3.
NRP2 gave cell gain with vemurafenib 0.28; lactate per cell with vemurafenib 1.6.
Against SLC38A11, the entry reads cell gain with vemurafenib 0.34; lactate per cell with vemurafenib 1.86.
With knock-down of HSD17B1, the screen gave cell gain with vemurafenib 1.23; lactate per cell with vemurafenib 1.19.
After knock-down of MAL2, the record shows cell gain with vemurafenib 1; lactate per cell with vemurafenib 0.77.
With knock-down of ZDHHC17, the screen gave cell gain with vemurafenib 0.83; lactate per cell with vemurafenib 0.81.
With knock-down of ST6GALNAC3, the record shows cell gain with vemurafenib 0.9; lactate per cell with vemurafenib 1.52.
For SPP1, the values are cell gain with vemurafenib 0.73; lactate per cell with vemurafenib 1.54.
PCBD1 scored cell gain with vemurafenib -0.04; lactate per cell with vemurafenib 2.96.
After knock-down of KCTD2 the results were cell gain with vemurafenib 0.67; lactate per cell with vemurafenib 0.95.
After knock-down of GAST the results were cell gain with vemurafenib 0.65; lactate per cell with vemurafenib 0.66.
Against MTA2, the values are cell gain with vemurafenib 0.45; lactate per cell with vemurafenib 2.25.
After knock-down of RPL23AP82 the results were cell gain with vemurafenib 0.31; lactate per cell with vemurafenib 1.4.
LRP5L showed cell gain with vemurafenib 0.31; lactate per cell with vemurafenib 0.76.
For CMPK2 the deposit lists cell gain with vemurafenib 0.5; lactate per cell with vemurafenib 1.09.
After knock-down of HSPA1A the results were cell gain with vemurafenib 1.09; lactate per cell with vemurafenib 0.82.
After knock-down of GLUD2 the results were cell gain with vemurafenib 0.82; lactate per cell with vemurafenib 0.62.
Knock-down of PFN1 gave: cell gain with vemurafenib 0.72; lactate per cell with vemurafenib 1.57.
With knock-down of SLC39A8, the record shows cell gain with vemurafenib 0.28 (active); lactate per cell with vemurafenib 0.4.
After knock-down of PKIG, the screen gave cell gain with vemurafenib 0.92; lactate per cell with vemurafenib 1.24.
Silencing of SPAG6 resulted in: cell gain with vemurafenib 0.18; lactate per cell with vemurafenib 0.8.
After knock-down of ZBTB43, the record shows cell gain with vemurafenib 0.54; lactate per cell with vemurafenib 1.43.
MAP1S gave cell gain with vemurafenib 0.63; lactate per cell with vemurafenib 0.97.
For GOSR1, the entry reads cell gain with vemurafenib 0.63 (active); lactate per cell with vemurafenib 0.61.
With knock-down of SEC63, the screen gave cell gain with vemurafenib 0.72; lactate per cell with vemurafenib 1.06.
Depletion of CLN5 gave: cell gain with vemurafenib 0.42; lactate per cell with vemurafenib 1.16.
Depletion of PNKD came out at: cell gain with vemurafenib -0.06; lactate per cell with vemurafenib 1.54.
For FCGR3B, the values are cell gain with vemurafenib 0.72; lactate per cell with vemurafenib 0.7.
Silencing of GPR22 resulted in: cell gain with vemurafenib 0.94; lactate per cell with vemurafenib 0.42.
Silencing of UNC45B resulted in: cell gain with vemurafenib 0.19 (active); lactate per cell with vemurafenib 0.88.
Knock-down of ARV1 came out at: cell gain with vemurafenib 1.16; lactate per cell with vemurafenib 0.51.
After knock-down of SFPQ, the screen gave cell gain with vemurafenib 0.18; lactate per cell with vemurafenib 1.94.
TBC1D19 showed cell gain with vemurafenib 0.55; lactate per cell with vemurafenib 0.93.
For EIF4G2, the values are cell gain with vemurafenib 0.78; lactate per cell with vemurafenib 0.44.

Quoted from the listing, 3 entries:
GTF2H1 — cell gain with vemurafenib: 0.69; lactate per cell with vemurafenib: 0.99
TRIM40 — cell gain with vemurafenib: 1.01; lactate per cell with vemurafenib: 0.78
FGFR2 — cell gain with vemurafenib: 0.29; lactate per cell with vemurafenib: 0.87
